Several values for one entry are separate records, joined by “and”; a condition that tells them apart may be missing. Equal entries are not always repeated. The list shows a part of the results. The main result of the screen is listed elsewhere. These columns were measured beside it and carry no call. Compounds called inactive in the main read-out are mostly missing here. Words in brackets tell the shape of the fitted curve; partial curves, single points and poor fits give uncertain potencies.
Assay: Cell signaling CRE-BLA (Fsk stim)
Settings: CHO CRE-bla reporter (cAMP response element driving beta-lactamase), forskolin EC10, beta-lactamase ratio; measured here: 460 nm blue channel
Summary of the method: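 Titrated compounds plus EC10 NKH 477 on CHO CRE-bla cells, 3 h, 37 °C. CCF4, 2 h RT. Ratio 460/530 nm → AC50.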

Row | SMILES | AC50
1 | CCn1c(SCC(=O)c2[nH]c(C)c(C(C)=O)c2C)nnc1-c1ccncc1 | 0.158 µM [rising, full curve, poor fit]
2 | N#CC1=C(N)SC(N)=C(C#N)C1c1ccnc2ccccc12 | 3.98 µM [falling, partial curve]
3 | CCN(C(=O)c1cnc(N2CCN(c3ncccn3)CC2)c2ccccc12)c1cccc(Cl)c1 | 0.00316 µM [falling, full curve, poor fit]
4 | CCCCN1C(=O)C2ON(c3ccccc3C)C(c3ccco3)C2C1=O (stereo unspecified) | 0.501 µM [rising, partial curve]
5 | O=C(Nc1ccccc1Cl)c1c(F)c(F)c(F)c(F)c1F | 0.398 µM [falling, partial curve, poor fit]
6 | CCOCN(C(=O)Cn1c(CO)nc2ccccc21)c1c(C)cccc1CC | 1 µM [falling, partial curve]
7 | Fc1ccc(-c2nnc3sc(-c4ccc5c(c4)OCO5)nn23)cc1 | 10 µM [rising, single point]
8 | O=c1c2[nH]c3ccc(Br)cc3c2ncn1CCCn1ccnc1 | 12.6 µM [rising, partial curve]
9 | CCOC(=O)c1c(NC(=O)CN2CCOCC2)sc2c1CCCC2=O | 12.6 µM [rising, partial curve]
10 | N#Cc1c(N)nc(SCc2ccccc2)c(C#N)c1-c1ccco1 | 3.16 µM [rising, full curve]
11 | O=C(CSc1nc2ccccc2[nH]1)Nc1ccccc1N1CCOCC1 | 10 µM [rising, partial curve]
12 | CCCNc1nc2c(c(=O)[nH]c(=O)n2C)n1CCc1ccccc1 | 12.6 µM [rising, partial curve]
13 | CCCc1nc(-c2ccccc2O)n(-c2ccccc2)n1 | 10 µM [rising, partial curve]
14 | COc1ccc(C)cc1NC(=O)CN1CCN(S(=O)(=O)c2ccc(Cl)cc2)CC1 | 0.398 µM [falling, partial curve]
15 | CN(C)C(=O)c1ccc(-c2ccc3ncnc(Nc4ccccc4)c3c2)cc1 | 6.31 µM [rising, partial curve]
16 | COc1cc(C(=O)NCC(=O)OCC(=O)c2ccc[nH]2)cc(OC)c1OC | 15.8 µM [rising, single point]
17 | CCOc1cc(C#N)c(NC(=O)c2cccnc2)cc1OCC | 10 µM [rising, single point]
18 | Cc1cccc(N2CCN(C(=O)c3cc4n(n3)C(C(F)(F)F)CC(c3ccco3)N4)CC2)c1C (stereo unspecified) | 20 µM [falling, partial curve]
19 | CCn1c(SCC(=O)Nc2nc3c(s2)CCCC3)nnc1-c1ccccc1 | 10 µM [rising, single point]
20 | O=C1CC(Nc2ccc(N3CCOCC3)cc2)C(=O)N1C1CCCCC1 (stereo unspecified) | 3.16 µM [falling, single point]
21 | CCn1c(SCc2nc(-c3ccccc3)no2)nc2ccccc21 | 12.6 µM [rising, partial curve]
22 | CC1CCN(C(=O)CN(c2ccc3c(c2)OCO3)S(C)(=O)=O)CC1 | 0.00316 µM [falling, full curve, poor fit]

Row | SMILES | AC50
23 | Cc1oc(-c2ccc(F)cc2)cc1-c1nn2c(-c3ccoc3C)nnc2s1 | 12.6 µM [rising, single point]
24 | COCCCNC(=O)c1c(N)n(-c2ccc3c(c2)OCO3)c2nc3ccccc3nc12 | 12.6 µM [rising, partial curve]
25 | CC(C)(C)OC(=O)N1CCC(C(=O)N2CCC[C@H]2C(=O)O)CC1 | 5.01 µM [falling, partial curve]
26 | O=C(O)Cn1nnnc1SCC(=O)Nc1ccc(OC(F)(F)F)cc1 | 7.94 µM [falling, partial curve, poor fit]
27 | C=CCn1c(NCCO)nc2sc3c(c2c1=O)CCC3 | 12.6 µM [rising, partial curve]
28 | Cc1cc(C(=O)CN2C(=O)c3ccccc3C2=O)c(C)n1C1CC1 | 5.01 µM [falling, single point]
29 | O=C(Nc1cccc(-c2nc3ncccc3o2)c1)c1cc2ccccc2o1 | 25.1 µM [falling, single point]
30 | COC(=O)c1cn(NC(=O)c2cnccn2)c(=O)c2ccccc12 | 0.0794 µM [falling, partial curve, poor fit]
31 | COc1ccccc1Nc1nc(N)nc(CSc2nnc(C)s2)n1 | 12.6 µM [rising, partial curve]
32 | CCOC(=O)Cc1csc(NC(=O)CSc2ncnc3c2cnn3-c2ccc(OC)cc2)n1 | 12.6 µM [rising, partial curve]
33 | NC(=O)CS(=O)(=O)c1nc2ccccc2n1Cc1ccccc1F | 12.6 µM [falling, single point]
34 | COc1ccc(-c2cc3nc4c(c(N5CCC6(CC5)OCCO6)n3n2)CCCC4)cc1 | 2.51 µM [rising, full curve]
35 | Nn1cc(-c2ccccc2)nc1SCC(=O)N1CCN(S(=O)(=O)c2ccccc2)CC1 | 5.01 µM [falling, partial curve]
36 | Cc1ccc(-c2csc3ncnc(OCC(=O)NC(=O)NCc4ccco4)c23)cc1 | 0.251 µM [falling, full curve, poor fit]
37 | Cn1c(C(=O)NCCCN2CCCC2=O)cc2c(=O)n(C)c3ccccc3c21 | 3.98 µM [rising, full curve]
38 | COc1ccc(-c2nc(CS(=O)CC(=O)NC3CCCc4ccccc43)c(C)o2)cc1OC (stereo unspecified) | 5.01 µM [rising, partial curve]
39 | Brc1c(OCCOCCn2cncn2)ccc2ccccc12 | 10 µM [rising, partial curve]
40 | CC(C)(C)C1CCC2(CC1)NC(CO)(CO)CO2 (stereo unspecified) | 0.00398 µM [falling, full curve, poor fit]
41 | COc1ccc(NS(=O)(=O)c2ccc(Oc3ncccn3)cc2)cc1 | 2 µM [falling, partial curve]
42 | COc1ccc(CN2C(=O)[C@@H]3C(c4ccccc4Cl)=NO[C@@H]3C2=O)cc1 | 0.00631 µM [falling, full curve, poor fit]
43 | CSc1nnc(NC(=O)C2CCCCC2)s1 | 3.98 µM [rising, single point]
44 | CC(C)(C)n1ncc2c(=O)n(CC(=O)N3CCc4ccccc43)cnc21 | 0.126 µM [falling, full curve]

Single entries from above.
Entry of `C=CCn1c(NCCO)nc2sc3c(c2c1=O)CCC3` under AC50: 12.6 µM [rising, partial curve]
Entry of `CC(C)(C)n1ncc2c(=O)n(CC(=O)N3CCc4ccccc43)cnc21` under AC50: 0.126 µM [falling, full curve]

(more compounds)

Row | SMILES | AC50
45 | CC[C@@H]1CN2CCc3cc(OC)c(OC)cc3[C@H]2C[C@@H]1C[C@H]1NCCc2cc(OC)c(OC)cc21 | 5.01 µM [falling, partial curve] and 251 nM [falling, full curve]
46 | CNc1nc(SC)nc(N2CCOCC2)n1 | 7.94 µM [rising, partial curve]
47 | COC(=O)CN(c1ccc(OC)cc1)S(=O)(=O)c1ccc(OC)c(OC)c1 | 10 µM [rising, partial curve]
48 | O=C(c1cccs1)N1CCN(S(=O)(=O)N2CCOCC2)CC1 | 0.00398 µM [falling, full curve, poor fit]
49 | O=C(NCCc1ccccc1)C1CCN(S(=O)(=O)c2cccs2)CC1 | 5.01 µM [falling, single point]
50 | O=C(Nc1ccc(F)cc1)N(CCCN1CCOCC1)Cc1cc2cc3c(cc2[nH]c1=O)OCO3 | 12.6 µM [rising, partial curve]
51 | Cn1c(C(=O)NCc2ccccn2)cc2c(=O)n3ccccc3nc21 | 10 µM [rising, partial curve]
52 | Cn1c(=O)[nH]c(=O)c2c1nc(NCc1ccccc1)n2CCCc1ccccc1 | 3.98 µM [rising, partial curve, poor fit]
53 | O=c1cc(N2CCc3ccccc3C2)[nH]c(=O)n1Cc1ccc(F)cc1 | 1.26 µM [rising, full curve, poor fit]
54 | CCOc1ccccc1CNC(=O)C1CCCN(c2nc3ccccc3o2)C1 (stereo unspecified) | 12.6 µM [rising, single point]
55 | FC(F)(F)c1ccccc1-c1ccc2ncnc(NC3CCNCC3)c2c1 | 10 µM [rising, partial curve]
56 | COc1ccc(N2CCN(c3nc(NCCc4ccc(OC)c(OC)c4)nc(OC)n3)CC2)cc1 | 3.16 µM [rising, full curve]
57 | Cc1ccc(CNC(=O)CCS(=O)(=O)c2cccc3nonc23)cc1 | 25.1 µM [falling, single point]
58 | N#CCSc1nc(Nc2ccc3c(c2)OCO3)c2ccccc2n1 | 1.58 µM [rising, partial curve]
59 | O=c1c(-c2cccs2)nc2cnc(Oc3cccc(Cl)c3)nc2n1C[C@H]1CCCO1 | 6.31 µM [rising, partial curve]
60 | O=c1oc2c(CN3CCOCC3)c(O)ccc2c2c1CCC2 | 12.6 µM [rising, single point]
61 | Cc1c(C(=O)OCC(C)C)[nH]c2c1C(=O)CC(c1ccco1)C2 (stereo unspecified) | 2 µM [rising, full curve]
62 | COc1ccc(-c2nc3cnc(OCc4ccccc4)nc3n(CCC#N)c2=O)cc1 | 12.6 µM [rising, partial curve]
63 | CN(C)c1ncc2nc(-c3ccc(Cl)cc3)c(=O)n(-c3ccccc3)c2n1 | 10 µM [rising, partial curve]
64 | Cc1cc(NC(=O)CSc2nc(-c3ccco3)cc(C(F)(F)F)n2)no1 | 3.16 µM [rising, full curve]
65 | CCC(C)NC(=O)C1CCN(C(=O)N(C)C)CC1 (stereo unspecified) | 25.1 µM [rising, single point]
66 | COc1cc(Cl)c(C)cc1NC(=O)COc1cc(C)nc(C(C)C)n1 | 3.16 µM [rising, single point]
